Several values for one entry are separate records, joined by “and”; a condition that tells them apart may be missing. Equal entries are not always repeated. Some of the results follow. Many values rest on one well or one pass, so single values are uncertain.
Tests used:
[1] = system: MEPP (mouse ovarian epithelium Trp53/Pten KO); test: cell viability relative to untreated (fraction); higher = less growth inhibition; details: 5 µM; 3 days
[2] = system: PREPP (mouse prostate epithelium Trp53/Pten KO); test: as above; details: 5 µM; 3 days

Row | SMILES | cell viability [1] | cell viability [2]
1 | COc1c(O)cc(O)c2c(=O)cc(-c3ccccc3)oc12 | 1.66 | 0.796
2 | O=C(CO)[C@@H](O)[C@H](O)[C@H](O)CO | 1.29 and 1.16 | 0.929 and 0.863
3 | Nc1ncnc2c1ncn2C1CC(O)C(COP(=O)(O)O)O1 (configuration not stated) | 0.881 | 1.02
4 | O=C(O)c1cccnc1 | 0.848 | 0.922
5 | CC(=O)OC(CC(C)C1=C2C[C@H](O)C3[C@@]4(C)CCC(=O)C(C)(C)C4CC[C@]3(C)[C@@]2(C)CC1)C1OC1(C)C (some centres not stated) | 1 | 1.01
6 | CSCC[C@H](N)C(=O)O | 0.89 and 0.985 | 0.956 and 1.03
7 | COc1cc(CCC(C)=O)ccc1O | 1.03 | 1.26
8 | C[C@@H]1O[C@@H](O[C@@H]2[C@@H](O)[C@H](OCCc3ccc(O)c(O)c3)O[C@H](CO)[C@H]2OC(=O)/C=C/c2ccc(O)c(O)c2)[C@H](O)[C@H](O)[C@H]1O | 0.783 | 0.954
9 | CN(C)CCCN1c2ccccc2Sc2ccc(Cl)cc21 | 1.04 | 1.01
10 | CN1C(=O)/C(=C2/C(=O)Nc3ccccc32)c2ccccc21 | 0.889 | 0.949
11 | Cc1cn([C@@H]2O[C@H](CO)[C@@H](O)[C@H]2O)c(=O)nc1N | 1.04 | 0.881
12 | C[C@H](CCC(=O)NCC(=O)O)[C@H]1CC[C@H]2[C@@H]3[C@H](O)C[C@@H]4C[C@H](O)CC[C@]4(C)[C@H]3CC[C@]12C | 0.996 and 1.02 | 1.05 and 0.9
13 | O=C(O)CCc1c[nH]c2ccccc12 | 1.05 | 0.914
14 | C[C@]1(Cn2ccnn2)[C@H](C(=O)O)N2C(=O)C[C@H]2S1(=O)=O | 0.936 | 0.76
15 | COc1cc(C=O)cc(OC)c1O | 0.952 | 1.02
16 | CCS(=O)(=O)CCn1c([N+](=O)[O-])cnc1C | 1.02 | 0.953
17 | COc1ccc(CCC(=O)c2c(O)cc(OC3OC(CO)C(O)C(O)C3OC3OC(C)C(O)C(O)C3O)cc2O)cc1O (configuration not stated) | 1.19 | 1.13
18 | O=C(O)[C@@H]1CCCN1 | 0.943 | 1.05

Arranged by formula weight (ascending): three of the compounds above
Row | SMILES | cell viability [1] | cell viability [2]
4 | O=C(O)c1cccnc1 | 0.848 | 0.922
16 | CCS(=O)(=O)CCn1c([N+](=O)[O-])cnc1C | 1.02 | 0.953
9 | CN(C)CCCN1c2ccccc2Sc2ccc(Cl)cc21 | 1.04 | 1.01

Following part:

Row | SMILES | cell viability [1] | cell viability [2]
19 | C/C=C\c1ccc(O)c(OC)c1 | 0.902 | 1.02
20 | C[C@@H]1CN(c2c(F)c(N)c3c(=O)c(C(=O)O)cn(C4CC4)c3c2F)C[C@H](C)N1 | 0.945 | 0.906
21 | O=C1OC2(c3ccccc31)c1ccc(O)c(O)c1Oc1c2ccc(O)c1O | 0.786 | 0.896
22 | O=C(/C=C/c1ccc(O)cc1)C1=C(O)C(O)([C@@H]2O[C@H](CO)[C@@H](O)[C@H](O)[C@H]2O)C(O)=C([C@@H]2O[C@H](CO)[C@@H](O)[C@H](O)[C@H]2O)C1=O (some centres not stated) | 1.24 | 1.07
23 | CC(O)CO (configuration not stated) | 1.13 | 0.897
24 | CC(C)=CCC[C@](C)(O[C@@H]1O[C@H](CO)[C@@H](O)[C@H](O)[C@H]1O)[C@H]1CC[C@]2(C)[C@@H]1[C@H](O)C[C@@H]1[C@@]3(C)CC[C@H](O[C@@H]4O[C@H](CO)[C@@H](O)[C@H](O)[C@H]4O[C@@H]4O[C@H](CO)[C@@H](O)[C@H](O)[C@H]4O)C(C)(C)[C@@H]3CC[C@]12C | 0.997 | 0.988
25 | COC(=O)c1ccccc1O | 1.49 | 0.941
26 | COc1ccc(-c2cc(=O)c3c(OC)c(OC)c(OC)c(OC)c3o2)cc1OC | 1.35 | 0.798
27 | COc1ccc(C[C@H]2COC(=O)[C@@H]2Cc2ccc(O[C@@H]3O[C@H](CO)[C@@H](O)[C@H](O)[C@H]3O)c(OC)c2)cc1OC | 1.17 | 0.879
28 | CCN1CCN(C(=O)N[C@@H](C(=O)N[C@@H]2C(=O)N3C(C(=O)O)=C(CSc4nnnn4C)CS[C@H]23)c2ccc(O)cc2)C(=O)C1=O | 1.15 | 0.883
29 | c1c[nH]cn1 | 0.923 | 1.05
30 | COc1ccc([C@@H]2OC[C@H]3[C@@H]2CO[C@@H]3c2ccc3c(c2)OCO3)cc1OC | 1.14 | 0.854
31 | N=C(N)N | 0.922 | 0.817
32 | CCCCC1OC(=O)c2ccccc21 (configuration not stated) | 0.855 | 1.08
33 | CCCCCCCCCCCCCCCCCC(=O)OC | 1.01 | 0.729
34 | COc1cc(C(=O)OCCCCNC(=N)N)cc(OC)c1O | 1.77 | 1.01
35 | CC1=C(/C=C/C(C)=C/C=C/C(C)=C/C(=O)Nc2ccc(O)cc2)C(C)(C)CCC1 | 1.01 | 0.814
36 | CO[C@H]1C[C@@H]2CC[C@@H](C)[C@@](O)(O2)C(=O)C(=O)N2CCCC[C@H]2C(=O)O[C@H]([C@H](C)C[C@@H]2CC[C@@H](O)[C@H](OC)C2)CC(=O)[C@H](C)/C=C(\C)[C@@H](O)[C@@H](OC)C(=O)[C@H](C)C[C@H](C)/C=C/C=C/C=C/1C | 0.854 | 0.717

Reference: the supplement of paper PMC12873370
